In the test the target is T1, RPN1 (mouse (endogenous in mouse brain)) (UniProt Q91YQ5).
T1 sequence: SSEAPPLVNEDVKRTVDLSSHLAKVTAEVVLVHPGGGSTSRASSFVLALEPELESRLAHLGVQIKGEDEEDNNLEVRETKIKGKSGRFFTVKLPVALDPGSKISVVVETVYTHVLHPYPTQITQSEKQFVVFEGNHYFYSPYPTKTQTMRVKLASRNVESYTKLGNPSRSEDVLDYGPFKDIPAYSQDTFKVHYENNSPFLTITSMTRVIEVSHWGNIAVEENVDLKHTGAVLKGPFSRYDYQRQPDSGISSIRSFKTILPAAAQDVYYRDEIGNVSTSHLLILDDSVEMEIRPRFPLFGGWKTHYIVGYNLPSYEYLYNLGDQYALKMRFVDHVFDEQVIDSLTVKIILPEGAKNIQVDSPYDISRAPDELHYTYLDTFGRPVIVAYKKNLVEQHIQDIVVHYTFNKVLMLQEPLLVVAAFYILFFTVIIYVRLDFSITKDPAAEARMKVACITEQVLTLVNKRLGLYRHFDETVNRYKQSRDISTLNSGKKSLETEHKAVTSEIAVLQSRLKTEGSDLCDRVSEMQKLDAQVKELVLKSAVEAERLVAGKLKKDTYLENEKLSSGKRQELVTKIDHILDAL
Kind of test: co-IP; endogenous proteins from normal brain tissue of WT mice; immunoprecipitation assay kit (Proteintech), primary antibody overnight at 4 °C, agarose beads, detection by western blotting. A general note: Immunoblotting shows a protein as a band on a membrane.

These are yes or no findings as the source states them, for the method shown. Binding seen in cells or lysates may run through a third protein.

B1: CDK5RAP3 (protein, UniProt Q99LM2 1-503)
chain: MQDHQHVPIDIQTSKLLDWLVDRRHCNLKWQSLVLTIREKINTAIQDMPESQEIAQLLSGSYIHYFHCLRIVDLLKGTEASTKNIFGRYSSQRMKDWQEIVSLYEKDNTYLVELCSLLVRNVSYEIPSLKKQIAKCQQLQQEYSRKEEEGQAGAAEMREQFYHSCKQYGITGDNVRRELLALVKDLPSQLAEIGAGAQSLGEAIDLYQACVEFVCDSPTEQVLPMLRYVQKKGNSTVYEWRTGTEPSVVERPQLEEPPEQVQEDEIDWGDFGVEAVSDSGIVAETPGIDWGISLESEAKDAGADKIDWGDDAAAASEITVLETGTEAPEGVARGSDALTLLEYPETRNQFIDELMELEIFLSQRAVEMSEEADILSVSQFQLAPAILQGQTKEKMLSLVSTLQQLIGRLTSLRMQHLFMILASPRYVDRVTEFLQQKLKQSQLLALKKELMVEKQQEALQEQAALEPKLDLLLEKTRELQKLIEADISKRYSGRPVNLMGTSL
Regarding B1, the binding result is listed as “no binding”.
